{"source": "paper PMC11201590", "about": "“Enhancing Selective Antimicrobial and Antibiofilm Activities of Melittin through 6-Aminohexanoic Acid Substitution” (Biomolecules, 2024)", "tested_on": "sheep red blood cells (sRBCs)", "experiment": "Hemolytic activity", "assay_type": "cell-based", "conditions": "ratio of HC10 to GM of the MIC"}
{"molecule": "CC[C@H](C)[C@H](NC(=O)CN)C(=O)NCC(=O)N[C@@H](C)C(=O)N[C@H](C(=O)N[C@@H](CC(C)C)C(=O)N[C@@H](CCCCN)C(=O)N[C@H](C(=O)N[C@@H](CC(C)C)C(=O)N[C@H](C(=O)N[C@H](C(=O)NCC(=O)N[C@@H](CC(C)C)C(=O)N1CCC[C@H]1C(=O)N[C@@H](C)C(=O)N[C@@H](CC(C)C)C(=O)N[C@H](C(=O)N[C@@H](CO)C(=O)N[C@@H](Cc1c[nH]c2ccccc12)C(=O)N[C@H](C(=O)N[C@@H](CCCCN)C(=O)N[C@@H](CCCNC(=N)N)C(=O)N[C@@H](CCCCN)C(=O)N[C@@H](CCCNC(=N)N)C(=O)N[C@@H](CCC(N)=O)C(=O)N[C@@H](CCC(N)=O)C(N)=O)[C@@H](C)CC)[C@@H](C)CC)[C@@H](C)O)[C@@H](C)O)C(C)C)C(C)C", "note": "[Melittin]", "values": [{"measurement": "TI (HC10/GM), therapeutic index", "value": 0.19}]}
